Patent publication US20250059284A1
Substitutions are numbered along the chain they refer to. No constants are given. Whether binding was seen depends on the method and setting. A result given as binding can be weak or reduced; the word gives no strength. Values belong to the binder of their own block, whether it stands above or below them.

How the values were obtained:
[1] = target: cynomolgus Gal10-His (WGS isoform) (cynomolgus); assay: summary table, row Cyno cross-reactivity
[2] = target: cynomolgus Gal10-His (WGS isoform) (cynomolgus); assay: SPR Biacore 3000; two concentrations on captured cynomolgus Gal10-His

binding [1]: binds | binding [2]: binds
B1: g23H09 human Fab (Fab, V domains shown)
VH: EVQLLESGGGLVQPGGSLRLSCAASGFTFRSYDMSWVRQAPGKGLEWVSAIAQFQHWTYYADSVKGRFTISRDNSKNTLYLQMNSLRAEDTAVYYCATTHGIGTLGFGSWGQGTLVTVSS
VL: SYELTQPLSVSVALGQTARITCDGNNIGSKSAQWYQQKPGQAPVLVIYADEYRPEGIPERFSGSNSGNTATLTISRAQAGDEADYYCQVWDGSAAVFGGGTQLTVL

binding [2]: binds
B2: g24F02 human Fab (Fab, V domains shown)
VH: EVQLLESGGGLVQPGGSLRLSCAASGFTFSSYAMSWVRQAPGKGLEWVSAINNGGGSTSYADSVKGRFTISRDNSKNTLYLQMNSLRAEDTAVYYCAKGLRVGVLGFDYWGQGTLVTVSS
VL: B1 VL

binding [1]: binds | binding [2]: binds
B3: g24F02_N53A human Fab (Fab, V domains shown)
VH: B2 VH with N53A
VL: B1 VL
